Data published in paper PMC7437355.
Positions count from the first letter of the chain named. These are yes or no findings as the source states them, for the method shown. In cells and extracts the contact can be indirect. Some results given as binding are weak or reduced against the parent protein; the word gives no strength. Sequences can lack the tags named with a protein.

By UniProt entry, the sequences of proteins in these tests, tags left out.
UniProt P21359: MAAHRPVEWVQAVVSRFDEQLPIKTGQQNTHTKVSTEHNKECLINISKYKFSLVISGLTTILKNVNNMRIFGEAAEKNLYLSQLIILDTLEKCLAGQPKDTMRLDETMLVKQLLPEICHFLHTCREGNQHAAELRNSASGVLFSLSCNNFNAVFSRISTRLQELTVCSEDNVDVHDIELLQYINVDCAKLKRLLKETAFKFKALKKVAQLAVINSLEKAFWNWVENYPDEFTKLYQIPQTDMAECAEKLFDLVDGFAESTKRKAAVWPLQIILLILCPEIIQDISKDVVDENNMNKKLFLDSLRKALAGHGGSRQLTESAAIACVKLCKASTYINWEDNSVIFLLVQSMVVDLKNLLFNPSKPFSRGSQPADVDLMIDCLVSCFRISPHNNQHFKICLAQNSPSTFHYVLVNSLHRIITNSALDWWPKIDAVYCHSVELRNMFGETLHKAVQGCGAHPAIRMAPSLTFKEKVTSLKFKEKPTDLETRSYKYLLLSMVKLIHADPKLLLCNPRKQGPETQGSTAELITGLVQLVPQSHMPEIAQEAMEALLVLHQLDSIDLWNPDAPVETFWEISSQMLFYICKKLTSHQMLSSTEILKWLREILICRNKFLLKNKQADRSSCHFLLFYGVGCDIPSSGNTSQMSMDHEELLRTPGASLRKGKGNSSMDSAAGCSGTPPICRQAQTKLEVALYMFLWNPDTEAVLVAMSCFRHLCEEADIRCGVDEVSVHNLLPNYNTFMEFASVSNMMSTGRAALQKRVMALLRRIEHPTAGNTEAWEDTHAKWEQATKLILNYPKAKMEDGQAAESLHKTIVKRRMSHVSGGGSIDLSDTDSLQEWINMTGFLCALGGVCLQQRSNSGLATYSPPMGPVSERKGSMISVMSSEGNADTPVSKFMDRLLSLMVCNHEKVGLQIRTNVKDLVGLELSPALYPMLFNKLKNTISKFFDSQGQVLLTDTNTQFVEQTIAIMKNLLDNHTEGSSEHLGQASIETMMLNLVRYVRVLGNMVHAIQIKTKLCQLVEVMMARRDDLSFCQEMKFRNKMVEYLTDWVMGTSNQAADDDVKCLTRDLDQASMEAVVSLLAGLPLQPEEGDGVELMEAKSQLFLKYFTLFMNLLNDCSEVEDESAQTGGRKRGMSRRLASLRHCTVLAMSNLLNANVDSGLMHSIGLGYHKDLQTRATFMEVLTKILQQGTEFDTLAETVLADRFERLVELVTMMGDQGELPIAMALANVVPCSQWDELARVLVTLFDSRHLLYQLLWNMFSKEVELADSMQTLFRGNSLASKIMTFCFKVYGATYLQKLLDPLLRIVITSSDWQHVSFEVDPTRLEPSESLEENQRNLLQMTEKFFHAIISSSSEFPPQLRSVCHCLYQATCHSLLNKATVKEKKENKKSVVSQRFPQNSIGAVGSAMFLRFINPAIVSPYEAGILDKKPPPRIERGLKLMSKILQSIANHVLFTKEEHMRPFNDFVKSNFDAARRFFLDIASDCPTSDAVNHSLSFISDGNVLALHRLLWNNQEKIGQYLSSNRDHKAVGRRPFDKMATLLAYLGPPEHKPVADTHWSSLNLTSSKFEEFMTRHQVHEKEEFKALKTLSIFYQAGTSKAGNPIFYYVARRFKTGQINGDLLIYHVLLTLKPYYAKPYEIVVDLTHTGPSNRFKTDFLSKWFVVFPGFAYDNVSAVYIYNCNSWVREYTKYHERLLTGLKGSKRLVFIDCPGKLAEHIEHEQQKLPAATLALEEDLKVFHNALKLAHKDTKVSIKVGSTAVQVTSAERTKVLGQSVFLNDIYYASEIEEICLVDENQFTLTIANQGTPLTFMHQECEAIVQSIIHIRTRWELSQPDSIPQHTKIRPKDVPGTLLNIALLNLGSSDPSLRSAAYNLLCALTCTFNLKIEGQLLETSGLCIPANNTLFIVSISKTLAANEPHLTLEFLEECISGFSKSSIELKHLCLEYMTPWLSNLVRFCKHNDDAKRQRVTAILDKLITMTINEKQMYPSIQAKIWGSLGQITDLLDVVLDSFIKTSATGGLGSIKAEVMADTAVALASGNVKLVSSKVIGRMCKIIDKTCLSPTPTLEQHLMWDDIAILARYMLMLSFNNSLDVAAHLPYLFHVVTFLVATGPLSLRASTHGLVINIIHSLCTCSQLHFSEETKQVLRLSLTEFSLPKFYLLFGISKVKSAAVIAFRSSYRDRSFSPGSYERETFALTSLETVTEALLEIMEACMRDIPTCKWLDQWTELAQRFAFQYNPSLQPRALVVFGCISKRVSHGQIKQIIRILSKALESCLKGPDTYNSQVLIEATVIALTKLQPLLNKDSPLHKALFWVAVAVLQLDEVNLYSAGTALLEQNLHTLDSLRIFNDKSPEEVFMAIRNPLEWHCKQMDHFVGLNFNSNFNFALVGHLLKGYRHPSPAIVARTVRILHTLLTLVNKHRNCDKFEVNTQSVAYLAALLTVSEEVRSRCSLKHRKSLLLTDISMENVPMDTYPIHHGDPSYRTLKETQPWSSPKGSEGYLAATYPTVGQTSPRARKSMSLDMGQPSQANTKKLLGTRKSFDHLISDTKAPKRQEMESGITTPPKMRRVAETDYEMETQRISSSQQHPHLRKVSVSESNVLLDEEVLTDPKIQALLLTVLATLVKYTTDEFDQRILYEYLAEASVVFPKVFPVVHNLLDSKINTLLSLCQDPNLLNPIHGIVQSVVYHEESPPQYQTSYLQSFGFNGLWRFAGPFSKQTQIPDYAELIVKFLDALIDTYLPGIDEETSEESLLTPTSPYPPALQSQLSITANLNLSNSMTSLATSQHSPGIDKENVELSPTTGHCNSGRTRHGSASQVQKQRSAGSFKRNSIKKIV

Columns and labels:
Assay in all cases: co-IP; anti-FLAG IP of SPRED1-FLAG constructs from transiently transfected HEK293T lysate, western blot for endogenous NF1
[1] = target: T1, SPRED1(S105A)-FLAG, phosphodeficient, expressed in HEK293T (human) (UniProt Q7Z699)
T1 sequence: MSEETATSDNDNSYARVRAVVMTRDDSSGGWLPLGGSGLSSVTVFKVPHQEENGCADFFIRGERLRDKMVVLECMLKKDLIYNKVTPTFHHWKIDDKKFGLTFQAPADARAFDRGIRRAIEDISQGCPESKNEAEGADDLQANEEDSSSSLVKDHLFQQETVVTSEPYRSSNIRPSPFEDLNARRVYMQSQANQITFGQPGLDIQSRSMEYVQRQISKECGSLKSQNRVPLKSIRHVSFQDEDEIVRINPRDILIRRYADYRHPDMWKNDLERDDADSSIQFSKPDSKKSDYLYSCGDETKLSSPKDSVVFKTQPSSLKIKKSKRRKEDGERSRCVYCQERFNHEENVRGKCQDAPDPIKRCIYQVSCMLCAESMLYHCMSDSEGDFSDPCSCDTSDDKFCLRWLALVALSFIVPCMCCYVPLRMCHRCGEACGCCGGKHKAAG

[2] = target: T2, SPRED1(S105D)-FLAG, phosphomimetic, expressed in HEK293T (human) (UniProt Q7Z699)
T2 sequence: T1 sequence with A105D

[3] = target: T3, SPRED1-FLAG, wild type, expressed in HEK293T (human) (UniProt Q7Z699)
T3 sequence: T1 sequence with A105S

Measured: binding

endogenous NF1 (neurofibromin) in HEK293T (from UniProt P21359 1-2839)
binds: [1] | [2] | [3]
